# ± gives the standard deviation. The list shows a part of the results, in another mix than the full data. Many entries were measured with a wide error.
# Tested on: EfPiwi piRISC loaded with piRNA #1 (26 nt)
# Test: pre-steady-state target cleavage rate (min^-1); guide: piRNA #1 5'p-UGAGGUAGUAGGUUGUAUAGUAUCCA; MIWI and MILI are mouse PIWI proteins and EfPiwi is from a freshwater sponge; tags in brackets are library labels; higher = faster piRNA-guided slicing of the target
# Conditions: auxiliary factor: 500 nM Ephydatia muelleri Gtsf1
# Method in brief: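 Active affinity-purified piRISC carrying one synthetic guide (1 nM) was mixed with a transcribed, DNA-blocked target RNA library […] in HEPES–potassium acetate buffer at 33 °C for 0–8 or 0–960 min, with or without 500 nM GTSF1 partner protein. Uncleaved targets were then sequenced and normalised to depth and to weakly complementary targets. Three trials were pooled, and k3 was capped at 0.0001 min^-1. A burst-and-steady-state fit was applied to obtain the pre-steady-state cleavage rate.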
row,Sequence,pre-steady-state target cleavage rate
1,GGAGACCUUACUAUUCAACGUACUACCUCA,0.00226 ± 0.0041
2,GGAGACCUAUGAUAUGUUGCUACUACAUCA,0.00137 ± 0.0052
3,GGAGACCUAUGAUAUCAACCUACUAGGUCA,0.000391 ± 0.0098
4,GGAGAGGAUUGAAUACAACCUACUACCUCA,0.00721 ± 0.0044
5,GGAGACCUAUGAUAUGUAGCUACUACGUCA,0.000648 ± 0.0095
6,GGAGUGGAUACUAUAGAAGCUACUACCUCA,0.00277 ± 0.0019
7,GGAGACCUAUGAUAUGUACCUACAUGGAGA [g8:g13:cont:t1A],< 0.0001
8,GGAGACCUAUGUAUACAACCUACUACUCA,0.000409 ± 0.011
9,GGAGUGGAAACUAUACAACCUACAACCUCA,0.00221 ± 0.0036
10,GGAGACCAAUACUAUACAACCUACUACCUCA,0.5 ± 0.18
11,GGAGACCUAUCUAUACAACGUUCUACCUCA,0.00118 ± 0.0051
12,GGAGACCAUACUAUACCAACCUACUACCUCA,0.00761 ± 0.0031
13,GGAGAGGAUACUAUAGAACCUACAACCUCA,0.00202 ± 0.0024
14,GGAGACGAUAACUAUACAACCUACUACCUCA,0.0617 ± 0.023
15,GGAGACCAUACUAAACAACCUACUAGCUCA,0.00109 ± 0.0056
16,GGAGACGAUACUAUACACCUACUACCUCA,0.0134 ± 0.0055
17,GGAGACCAUACUAUACAACCUACAACCACA,0.00362 ± 0.0052
18,GGAGAGGAUACUAUACAACCUACUACCUACA,0.00995 ± 0.0044
19,GGAGACCUAUCUAUACACCCUACUACCUCA,0.00728 ± 0.0037
20,GGAGACCUAAGUAUACAACGUACUACCUCA,0.00282 ± 0.0036

# A second format for part of the listing above:
row | Sequence | pre-steady-state target cleavage rate
14 | GGAGACGAUAACUAUACAACCUACUACCUCA | 0.0617 ± 0.023
16 | GGAGACGAUACUAUACACCUACUACCUCA | 0.0134 ± 0.0055

# More entries follow:

row,Sequence,pre-steady-state target cleavage rate
1,GGAGACCUAUCUAUACAACCUACUACCACA,0.00226 ± 0.0029
2,GGAGACCUAACUAUACAACCUACUACCGUCA,0.0162 ± 0.0091
3,GGAGACCAUACUAUACAACCUAGCUACCUCA,0.00373 ± 0.0029
4,GGAGACCAUACUAUUGUACCUACUACCUCA,0.00237 ± 0.0038
5,GGAGACCUUACUAAACAUCCUACUACCUCA,0.00199 ± 0.0042
6,GGAGUGGAUACUAUACACCUACUACCUCA,0.157 ± 0.056
7,GGAGACCUUACUAUACAACCGACUACCUCA,0.00553 ± 0.0036
8,GGAGACCUAUGAUAUGUACGUACUACCACA,0.000117 ± 0.02
9,GGAGACGAUACUAUACAACCUAGUUCCUCA,0.00305 ± 0.0018
10,GGAGACGAUAGUAUACAACCUACUACCACA,0.00203 ± 0.0032
11,GGAGACCUAUGAUAUGUUGGUACUACGACA,0.00015 ± 0.016
12,GGAGACCUAUCUAUACAACCUAGAACCUCA,0.000228 ± 0.017
13,GGAGAGGAUACUAUACAACCUACUACCUCA [g2:g25:cont:t1A],0.0912 ± 0.033
14,GGAGUUGGAUACUAUACAACCUACUACCUCA,0.197 ± 0.056
15,GGAGACCUUACUAUACAACCUACUUCCUGA,0.00252 ± 0.0032
16,GGAGUGGAUAGUAUUCAACCUACUACCUCA,0.00162 ± 0.0047
17,GGAGACGAUACAAUACAACCUACUACGUCA,0.00361 ± 0.0032
18,GGAGUGGAUACUUUACAACCUACUACCUGA,0.00122 ± 0.0021
19,GGAGUGGAUACUAUACAAGCUACUACCUCA,0.008 ± 0.0032
20,GGAGACCUAUCUAAACAACCUACUACGUCA,0.000917 ± 0.0048
